Data as given in PubChem BioAssay AID686943 (Drosophila RNAi Screening Center, 2013).
Screen: 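Search across the genome for regulators of signalling from receptor tyrosine kinase to ERK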 (primary screen). System: Drosophila S2R+ haemocyte-like cells expressing YFP-tagged ERK (Rolled). Reagents: long dsRNA against Drosophila genes. Challenge: insulin stimulation versus unstimulated cells; dose and duration not given. Measurement: 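Antibody staining for doubly phosphorylated ERK divided by ERK-YFP signal, as plate z-scores, in insulin-treated and untreated cells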. Direction: replicate 1, z-score of dpERK with insulin and replicate 2, z-score of dpERK with insulin: higher = more active ERK per ERK-YFP after insulin; replicate 1, z-score of dpERK under basal conditions: higher = more basal active ERK per ERK-YFP; replicate 1, z-score of ERK-YFP with insulin: higher = more YFP-tagged ERK signal.
The deposit covers about 23,000 reagents; below is a random part of those with a known target gene and a result. 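Extra replicates exist only for a retested subset of genes; insulin dose and duration not given; both raised and lowered dpERK matter.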 Names joined by + are all predicted targets of the reagent. Not given: the amount of reagent, the time to read-out.

no.	gene	PubChem SID	replicate 1, z-score of dpERK with insulin	replicate 2, z-score of dpERK with insulin	replicate 1, z-score of dpERK under basal conditions	replicate 1, z-score of ERK-YFP with insulin
1	borr	SID104182541	0.25	0.07	-1.29	-0.58
2	FMRFaR	SID104188347	0.55	0.55	-0.28	-0.06
3	Fit2	SID104190700	-0.53	-0.16	-0.34	0.41
4	Actbeta	SID104196977	0.52	0.18	0.29	0.5
5	Actbeta	SID104197009	0.1	1.41	0.04	0.22
6	Chsy	SID104199967	-0.46	-0.01	-0.14	0.31
7	Chsy	SID104199968	0.23	0.23	-0.23	-0.04
8	Or19b + Or19a	SID104202019	0.06	0.5	0.13	0.76
9	CG3527	SID104198099	-0.63	-0.58	-0.37	-0.53
10	CG18870	SID104184105	-0.47	1.1	-1.11	0.66

4 neighbouring records already listed:
no.	gene	PubChem SID	replicate 1, z-score of dpERK with insulin	replicate 2, z-score of dpERK with insulin	replicate 1, z-score of dpERK under basal conditions	replicate 1, z-score of ERK-YFP with insulin
1	borr	SID104182541	0.25	0.07	-1.29	-0.58
2	FMRFaR	SID104188347	0.55	0.55	-0.28	-0.06
3	Fit2	SID104190700	-0.53	-0.16	-0.34	0.41
4	Actbeta	SID104196977	0.52	0.18	0.29	0.5

The listing continues:
no.	gene	PubChem SID	replicate 1, z-score of dpERK with insulin	replicate 2, z-score of dpERK with insulin	replicate 1, z-score of dpERK under basal conditions	replicate 1, z-score of ERK-YFP with insulin
11	CG11275	SID104183887	0.81	-0.4	0.08	0.23
12	E(spl)m2-BFM	SID104196783	-0.97	-2.6	-3.38	-0.5
13	Msh6	SID104190551	1.17	-0.2	-0.22	-0.12
14	dbo	SID104191131	0.65	-0.05	0.38	0.27
15	Taf10b	SID104180584	0.15	1.11	1.31	-0.78
16	Lipt1 + CG42837	SID104186975	-0.13	-0.19	0.43	-0.82
17	Dred	SID104190849	1.51	0.59	-0.62	0.6
18	Dred	SID104190851	0.13	0.11	-0.37	-1.12
19	CG3517	SID104195284	-0.21	0.23	0.92	0.4
20	CG5787	SID104182687	1.64	0.65	-0.04	0.29
21	Ser6	SID104200366	1.32	0.15	0.01	-0.15
22	CG15126	SID104186340	0.47	0.56	-0.48	0.33
23	CG1999	SID104197991	-0.61	-1.06	1.14	0.33
